Experimental data reported in patent publication EP0849275A1, “Mannosylated peptides” (Rijksuniversiteit te Leiden, priority 1996, dated 1998).
Not every detail of the peptide structures is certain; ends, links or a residue may be inferred.

Columns and labels:
[1] = test system: T cell clone RP15.1.1; experiment: Short exposure of dendritic cells to peptide, wash, then co-culture with clone RP15.1.1; assay type: cell-based, human; details: proliferation measured after 48 hours
[2] = test system: T cell clone RP15.1.1; experiment: T cell proliferation assay, dendritic cells as antigen presenting cells, clone RP15.1.1; assay type: cell-based, human; details: dendritic cells (HLA-DR3 positive) as antigen presenting cells, clone RP15.1.1, [3H]-thymidine incorporation after 48 hours; read-out: peptide concentration at which half maximal proliferation was observed

SMILES: CC[C@H](C)[C@H](NC(=O)[C@@H](NC(=O)[C@H](CCCCNC(=S)Nc1ccc(O[C@H]2O[C@H](CO)[C@@H](O)[C@H](O)[C@@H]2O)cc1)NC(=S)Nc1ccc(O[C@H]2O[C@H](CO)[C@@H](O)[C@H](O)[C@@H]2O)cc1)[C@@H](C)O)C(=O)N[C@@H](C)C(=O)N[C@@H](Cc1ccc(O)cc1)C(=O)N[C@@H](CC(=O)O)C(=O)N[C@@H](CCC(=O)O)C(=O)N[C@@H](CCC(=O)O)C(=O)N[C@@H](C)C(=O)N[C@@H](CCCNC(=N)N)C(=O)N[C@@H](CCCNC(=N)N)C(=O)NCC(=O)O [M2KP1, M-K(M)-T-I-A-Y-D-E-E-A-R-R-G]
- induction of proliferation of the T cell clone after short exposure of dendritic cells ([1]; 0 minute incubation (washed directly with ice cold medium)): induces strong proliferation
- induction of proliferation of the T cell clone after short exposure of dendritic cells ([1]; 3 minute incubation at 37°C, then washed): strong proliferation
- induction of proliferation of the T cell clone after short exposure of dendritic cells ([1]; 10 minute incubation at 37°C, then washed): strong proliferation
- EC50 [2]: ~1 pM
